Data as given in PubChem BioAssay AID493246 (Drosophila RNAi Screening Center, 2011).

- Assay: 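Genome-wide search for dsRNAs that reduce cell number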 (primary screen)
- System: Drosophila Kc and S2R+ cells
- Reagent: long dsRNA against Drosophila genes
- Read-out: 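Raw, unnormalised count of remaining cells in each well; per-plate z-scores of cell number underlie the calls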
- Scale: Kc cell number and S2R+ cell number: higher = more cells remaining
- Rule for the call: 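Active when the per-plate z-score of cell number is 3 or more in the direction of fewer cells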
In all, the deposit lists about 21,000 reagents; below is an unselected part of those that have a named target and a result. Over the whole deposit, 429 (2%) got an active call. 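Values are raw and not normalised between plates; calls rest on per-plate z-scores that were not deposited.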 A plus sign joins genes that one reagent is predicted to hit. The record does not give: the amount of reagent, the time to read-out.

| gene | amplicon | Kc cell number, rep 1 | Kc cell number, rep 2 | S2R+ cell number, rep 1 | S2R+ cell number, rep 2 | Outcome |
| --- | --- | --- | --- | --- | --- | --- |
| CG34176 (GeneID 5740391) | DRSC00435 | 1.67e6 | 1.57e6 | 1.22e6 | 1.41e6 | inactive |
| mRpL14 (GeneID 31222) | DRSC18597 | 1.38e6 | 1.39e6 | 8.97e5 | 1.02e6 | inactive |
| CG13705 (GeneID 38587) | DRSC08314 | 1.59e6 | 1.64e6 | 1.26e6 | 1.17e6 | inactive |
| Oct-TyrR (GeneID 42452) | DRSC11883 | 1.45e6 | 1.36e6 | 1.39e6 | 1.44e6 | inactive |
| Eaf (GeneID 35660) | DRSC05050 | 1.34e6 | 1.42e6 | 8.95e5 | 9.59e5 | inactive |
| Eaf (GeneID 35660) | DRSC06052 | 1.69e6 | 1.79e6 | 1.27e6 | 1.40e6 | inactive |
| ssp7 (GeneID 318146) | DRSC18878 | 1.62e6 | 1.82e6 | 1.14e6 | 1.18e6 | inactive |
| frac (GeneID 38850) | DRSC10867 | 1.27e6 | 1.36e6 | 1.27e6 | 1.19e6 | inactive |
| l(1)G0020 (GeneID 31811) | DRSC18198 | 1.84e6 | 1.80e6 | 1.13e6 | 1.29e6 | inactive |
| PPP4R2r (GeneID 31979) | DRSC18695 | 1.40e6 | 1.44e6 | 1.11e6 | 1.19e6 | inactive |
| l(1)G0320 (GeneID 326234) | DRSC18255 | 6.06e5 | – | 8.46e5 | – | inactive |
| Grik (GeneID 42476) | DRSC15846 | 1.59e6 | 1.72e6 | 1.21e6 | 1.32e6 | inactive |
| Grik (GeneID 42476) | DRSC15847 | 1.15e6 | 1.13e6 | 1.11e6 | 1.21e6 | inactive |
| CG9886 (GeneID 33431) | DRSC00732 | 1.25e6 | 1.30e6 | 9.86e5 | 9.29e5 | inactive |
| CG32669 (GeneID 326229) | DRSC18864 | 1.45e6 | 1.68e6 | 1.10e6 | 1.24e6 | inactive |
| CG3198 (GeneID 31602) | DRSC18292 | 1.46e6 | 1.46e6 | 9.48e5 | 1.10e6 | inactive |
| CG1965 (GeneID 40842) | DRSC12577 | 1.50e6 | 1.57e6 | 1.14e6 | 1.19e6 | inactive |
| Cep290 (GeneID 38099) | DRSC08359 | 1.52e6 | 1.43e6 | 1.09e6 | 1.42e6 | inactive |
| JMJD6 (GeneID 42616) | DRSC15787 | 1.71e6 | 1.90e6 | 1.16e6 | 1.15e6 | inactive |
| Gr64f (GeneID 117477) | DRSC08447 | 1.43e6 | 1.40e6 | 1.00e6 | 1.15e6 | inactive |
| sti (GeneID 39429) | DRSC09739 | 1.59e6 | 1.64e6 | 1.20e6 | 1.34e6 | inactive |
| sti (GeneID 39429) | DRSC09740 | 1.50e6 | 1.55e6 | 1.25e6 | 1.36e6 | inactive |
| Pdhb (GeneID 43437) | DRSC14420 | 4.95e5 | – | 6.85e5 | – | inactive |
| CG6296 (GeneID 43246) | DRSC16013 | 4.83e5 | – | 8.45e5 | – | inactive |
| Ugt35D1 (GeneID 43708) | DRSC15107 | 1.60e6 | 1.61e6 | 1.03e6 | 1.18e6 | inactive |
| CG12877 (GeneID 43333) | DRSC14565 | 1.49e6 | 1.53e6 | 9.75e5 | 1.07e6 | inactive |
| U2af38 (GeneID 33201) | DRSC00796 | 1.02e6 | 1.20e6 | 6.22e5 | 7.17e5 | inactive |
| CG16986 (GeneID 38325) | DRSC08502 | 1.37e6 | 1.33e6 | 1.00e6 | 1.28e6 | inactive |
| CG12567 (GeneID 3355094) | DRSC20845 | 1.69e6 | 1.69e6 | 1.13e6 | 1.30e6 | inactive |
| mAChR-C (GeneID 31626) | DRSC17890 | 1.45e6 | 1.45e6 | 1.01e6 | 1.12e6 | inactive |
| Crys (GeneID 34604) | DRSC03294 | 1.30e6 | 1.38e6 | 9.73e5 | 1.08e6 | inactive |
| CG9393 (GeneID 41152) | DRSC16486 | 1.60e6 | 1.66e6 | 1.34e6 | 1.48e6 | inactive |
| CG30192 (GeneID 246510) | DRSC03977 | 6.61e5 | – | 9.92e5 | – | inactive |
| Rpn13 (GeneID 36545) | DRSC06379 | 1.52e6 | 1.50e6 | 1.12e6 | 1.34e6 | inactive |
| CG3987 (GeneID 41822) | DRSC15531 | 1.56e6 | 1.63e6 | 1.40e6 | 1.44e6 | inactive |
| CG13048 (GeneID 39789) | DRSC09929 | 1.55e6 | 1.49e6 | 1.35e6 | 1.42e6 | inactive |
| CG42258 (GeneID 32196) | DRSC19741 | 1.55e6 | 1.40e6 | 1.11e6 | 1.20e6 | inactive |
| CG42258 (GeneID 32196) | DRSC19783 | 1.48e6 | 1.47e6 | 9.55e5 | 1.10e6 | inactive |
| CG15753 (retired record) (GeneID 32306) | DRSC19718 | 8.98e5 | 9.00e5 | 5.09e5 | 6.32e5 | active |
| CG34248 (GeneID 5740883) | DRSC09426 | 1.41e6 | 1.50e6 | 1.08e6 | 1.28e6 | inactive |
| CG30095 (GeneID 246453) | DRSC07175 | 1.45e6 | 1.58e6 | 1.10e6 | 1.21e6 | inactive |
| CG1572 (GeneID 32098) | DRSC19686 | 6.30e5 | – | 8.34e5 | – | inactive |
| ebi (GeneID 33212) | DRSC00816 | 1.42e6 | 1.44e6 | 8.42e5 | 9.52e5 | inactive |
| spen (GeneID 44205) | DRSC00839 | 7.52e5 | 8.25e5 | 3.21e5 | 3.77e5 | inactive |
| Miga (GeneID 31775) | DRSC17821 | 1.68e6 | 1.61e6 | 1.07e6 | 1.20e6 | inactive |
| CG14937 (GeneID 34591) | DRSC02419 | 1.74e6 | 1.62e6 | 1.30e6 | 1.47e6 | inactive |
| CG6310 (GeneID 39237) | DRSC10619 | 1.39e6 | 1.32e6 | 1.22e6 | 1.30e6 | inactive |
| CG9897 + asRNA:CR42742 | DRSC04595 | 1.75e6 | 1.81e6 | 1.25e6 | 1.38e6 | inactive |
| CG7362 (GeneID 41787) | DRSC16236 | 1.27e6 | 1.44e6 | 1.07e6 | 1.22e6 | inactive |
| Vha26 (GeneID 40679) | DRSC12371 | 1.41e6 | 1.51e6 | 1.15e6 | 1.25e6 | inactive |
| CG34324 (GeneID 32302) | DRSC19502 | 1.63e6 | 1.66e6 | 1.09e6 | 1.26e6 | inactive |
| CG12782 (GeneID 37685) | DRSC04127 | 1.63e6 | 1.62e6 | 1.33e6 | 1.44e6 | inactive |
| aralar1 (GeneID 43616) | DRSC13987 | 1.51e6 | 1.70e6 | 1.04e6 | 1.06e6 | inactive |
| aralar1 (GeneID 43616) | DRSC16901 | 5.13e5 | – | 8.82e5 | – | inactive |
| CG4914 (GeneID 39597) | DRSC10458 | 1.35e6 | 1.44e6 | 1.30e6 | 1.38e6 | inactive |
| Vps35 (GeneID 37536) | DRSC04519 | 1.32e6 | 1.40e6 | 1.02e6 | 1.07e6 | inactive |
| CG4995 (GeneID 34390) | DRSC02801 | 1.47e6 | 1.47e6 | 1.16e6 | 1.20e6 | inactive |
| dgt3 (GeneID 37377) | DRSC04349 | 1.41e6 | 1.50e6 | 9.38e5 | 1.04e6 | inactive |
| CG6621 (GeneID 41319) | DRSC16076 | 1.53e6 | 1.62e6 | 1.35e6 | 1.42e6 | inactive |
